Measured data: PubChem BioAssay AID743448 (Peter MacCallum Cancer Centre, 2014)
This is an unselected part of the 106 reagents, in one setting of the screen. 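Calls are per line and drug panel including etoposide, not vorinostat-specific; gene picks needed hits in two or more extra lines with vorinostat versus etoposide.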 Reagent sequences are not shown.

- Aim: 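Find knock-downs giving vorinostat-specific cell death in several colon cancer lines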 (follow-up of hits)
- System: four human colon cancer cell lines: HCT116-VR (vorinostat-resistant HCT116 derivative), SW480, SW620 and LIM1215
- Reagents: siRNA pool against human genes, 40 nM siRNA pool
- Timing: drug added two days after transfection, read one day later
- Challenge: vorinostat 2.5 µM on one half of each plate, etoposide 5 µM on the other half
- Cell line and drug panel: LIM1215 cells with vorinostat
- Read-out: 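Caspase luminescence and viability fluorescence, each expressed relative to mock transfection and also as robust z-scores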
- Direction: caspase ratio to mock: higher = more caspase activity than mock; viability ratio to mock: higher = more live cells than mock; caspase robust z-score: higher = more caspase activity, more apoptosis; viability robust z-score: higher = more live cells
- Rule for the call: 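a row is a hit if caspase relative to mock is 1.6 or above or viability relative to mock is 0.75 or below; wells dying heavily without drug are not called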
- Meaning of the calls: active = caspase or viability hit in this panel; inactive = no change, or unhealthy well

gene	caspase ratio to mock	viability ratio to mock	caspase robust z-score	viability robust z-score	Call
RNF186	0.99	1	-1.38	0.66	inactive
NPEPPS	1.4	0.55	-0.85	-2.7	active
RERE	2.12	1.15	-0.02	1.77	active
PCP4	3.68	0.98	2.03	0.48	active
CNOT1	4.01	1.2	2.46	2.08	active
MAGOH	2.37	0.84	0.36	-0.55	active
NUP54	1.86	1.01	-0.32	0.7	active
CBX7	3.07	0.95	1.27	0.25	active
SIN3A	3.85	1	2.23	0.6	active
EIF3I	1.9	0.69	-0.27	-1.7	active
POLR2G	3.08	0.95	1.34	0.26	active
INTS6L	2.03	0.81	-0.08	-0.79	inactive
PLAG1	1.15	0.97	-1.19	0.38	inactive
BDP1	1.5	1.04	-0.77	0.92	inactive
CDK10	2.21	1.04	0.18	0.87	active
EIF4A1	1.14	0.9	-1.21	-0.12	inactive
EIF3L	1.7	1.02	-0.48	0.84	active
LRP3	1.17	0.91	-1.15	-0.05	inactive
POLR2K	1.88	0.84	-0.32	-0.58	active
C1orf210	1.92	0.78	-0.22	-1.04	inactive
GPER1	2.44	1.08	0.4	1.23	active
POLR2I	0.92	1	-1.48	0.66	inactive
VPS4A	2.1	0.73	-0.01	-1.39	active
AKAP8	2.19	1.2	0.08	2.13	active
MSANTD1	1.97	0.78	-0.21	-0.96	active
NPC1L1	1.93	0.98	-0.21	0.48	active
HSPA6	3.23	0.8	1.41	-0.83	active
TBC1D20	2.69	0.84	0.73	-0.51	active
NUP58	3.67	0.94	2.04	0.15	active
KIR2DL1	1.52	1.02	-0.72	0.78	inactive
HPCAL1	3.2	1.04	1.38	0.88	active
H1-5	2.5	0.92	0.44	0.05	active
TFAP2D	3.46	1.21	1.66	2.17	active
DNTTIP2	1.37	1	-0.9	0.62	inactive
UTP3	1.11	0.8	-1.25	-0.84	inactive
NUP133	2.23	0.96	0.19	0.3	active
RWDD2A	1.65	0.94	-0.57	0.2	active
FLII	2.48	1.34	0.47	3.14	active
NUP62	3.23	0.99	1.48	0.58	active
THAP1	1.54	1.09	-0.72	1.31	inactive
IQSEC1	1.89	1.09	-0.29	1.32	active
RGS18	2.93	1.02	1.06	0.76	active
RBBP8	2.77	0.96	0.85	0.31	active

A few values from above:
Under “caspase robust z-score”, EIF3I shows -0.27
Under “Call”, SIN3A shows active
Value for CDK10 in “Call”: active
Value for AKAP8 under “caspase ratio to mock”: 2.19
